Read-outs that look alike come from different tables or passages of the source. These are yes or no findings as the source states them, for the method shown. Binding seen in cells or lysates may run through a third protein. A yes stands for co-enrichment or nearness to the bait. Other partners may have been found. For some of these results: A no says only that the protein was not detected with the bait. Tags and fused reporters may be left off the sequences shown.
T1: Myc/DDK tagged FBXO32 (UniProt Q969P5)
T1 sequence: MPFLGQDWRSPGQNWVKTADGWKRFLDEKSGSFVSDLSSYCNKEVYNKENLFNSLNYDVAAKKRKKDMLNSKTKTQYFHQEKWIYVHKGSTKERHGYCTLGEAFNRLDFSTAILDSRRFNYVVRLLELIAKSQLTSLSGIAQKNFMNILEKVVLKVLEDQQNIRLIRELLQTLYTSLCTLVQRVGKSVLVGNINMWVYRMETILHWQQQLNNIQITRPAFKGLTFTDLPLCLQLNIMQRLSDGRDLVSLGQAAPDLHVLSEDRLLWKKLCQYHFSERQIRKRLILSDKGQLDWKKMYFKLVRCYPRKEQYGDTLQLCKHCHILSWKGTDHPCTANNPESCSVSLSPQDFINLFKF

Sequences of proteins named here, by UniProt entry; tags and fusion partners are left off.
UniProt O60264: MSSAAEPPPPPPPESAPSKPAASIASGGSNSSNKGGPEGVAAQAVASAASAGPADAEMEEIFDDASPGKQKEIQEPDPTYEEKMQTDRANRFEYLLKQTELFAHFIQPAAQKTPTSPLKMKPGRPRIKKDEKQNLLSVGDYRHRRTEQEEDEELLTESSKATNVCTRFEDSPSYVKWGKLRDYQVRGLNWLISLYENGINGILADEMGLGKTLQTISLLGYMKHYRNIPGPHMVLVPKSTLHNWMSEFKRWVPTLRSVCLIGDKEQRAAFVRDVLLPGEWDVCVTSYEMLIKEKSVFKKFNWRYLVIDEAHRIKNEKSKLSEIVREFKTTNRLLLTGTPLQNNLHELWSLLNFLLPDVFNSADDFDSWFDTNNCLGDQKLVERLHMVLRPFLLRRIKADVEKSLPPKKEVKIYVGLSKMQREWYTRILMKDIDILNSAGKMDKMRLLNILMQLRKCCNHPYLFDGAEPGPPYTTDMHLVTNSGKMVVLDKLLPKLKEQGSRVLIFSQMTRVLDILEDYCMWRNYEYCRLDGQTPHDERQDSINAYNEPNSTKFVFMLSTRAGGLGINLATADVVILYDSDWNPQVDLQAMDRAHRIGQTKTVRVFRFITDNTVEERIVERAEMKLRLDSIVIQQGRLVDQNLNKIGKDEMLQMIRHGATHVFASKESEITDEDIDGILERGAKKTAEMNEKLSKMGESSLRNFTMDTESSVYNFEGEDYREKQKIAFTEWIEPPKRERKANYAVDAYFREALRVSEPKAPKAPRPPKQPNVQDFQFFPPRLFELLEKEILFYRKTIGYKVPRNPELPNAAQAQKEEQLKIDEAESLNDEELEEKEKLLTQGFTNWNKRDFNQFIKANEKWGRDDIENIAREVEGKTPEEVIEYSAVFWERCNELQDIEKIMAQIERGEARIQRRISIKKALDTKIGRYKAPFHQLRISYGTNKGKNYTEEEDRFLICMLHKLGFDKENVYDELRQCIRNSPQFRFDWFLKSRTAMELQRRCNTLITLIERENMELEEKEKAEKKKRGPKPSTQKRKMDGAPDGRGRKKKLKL
UniProt P51532: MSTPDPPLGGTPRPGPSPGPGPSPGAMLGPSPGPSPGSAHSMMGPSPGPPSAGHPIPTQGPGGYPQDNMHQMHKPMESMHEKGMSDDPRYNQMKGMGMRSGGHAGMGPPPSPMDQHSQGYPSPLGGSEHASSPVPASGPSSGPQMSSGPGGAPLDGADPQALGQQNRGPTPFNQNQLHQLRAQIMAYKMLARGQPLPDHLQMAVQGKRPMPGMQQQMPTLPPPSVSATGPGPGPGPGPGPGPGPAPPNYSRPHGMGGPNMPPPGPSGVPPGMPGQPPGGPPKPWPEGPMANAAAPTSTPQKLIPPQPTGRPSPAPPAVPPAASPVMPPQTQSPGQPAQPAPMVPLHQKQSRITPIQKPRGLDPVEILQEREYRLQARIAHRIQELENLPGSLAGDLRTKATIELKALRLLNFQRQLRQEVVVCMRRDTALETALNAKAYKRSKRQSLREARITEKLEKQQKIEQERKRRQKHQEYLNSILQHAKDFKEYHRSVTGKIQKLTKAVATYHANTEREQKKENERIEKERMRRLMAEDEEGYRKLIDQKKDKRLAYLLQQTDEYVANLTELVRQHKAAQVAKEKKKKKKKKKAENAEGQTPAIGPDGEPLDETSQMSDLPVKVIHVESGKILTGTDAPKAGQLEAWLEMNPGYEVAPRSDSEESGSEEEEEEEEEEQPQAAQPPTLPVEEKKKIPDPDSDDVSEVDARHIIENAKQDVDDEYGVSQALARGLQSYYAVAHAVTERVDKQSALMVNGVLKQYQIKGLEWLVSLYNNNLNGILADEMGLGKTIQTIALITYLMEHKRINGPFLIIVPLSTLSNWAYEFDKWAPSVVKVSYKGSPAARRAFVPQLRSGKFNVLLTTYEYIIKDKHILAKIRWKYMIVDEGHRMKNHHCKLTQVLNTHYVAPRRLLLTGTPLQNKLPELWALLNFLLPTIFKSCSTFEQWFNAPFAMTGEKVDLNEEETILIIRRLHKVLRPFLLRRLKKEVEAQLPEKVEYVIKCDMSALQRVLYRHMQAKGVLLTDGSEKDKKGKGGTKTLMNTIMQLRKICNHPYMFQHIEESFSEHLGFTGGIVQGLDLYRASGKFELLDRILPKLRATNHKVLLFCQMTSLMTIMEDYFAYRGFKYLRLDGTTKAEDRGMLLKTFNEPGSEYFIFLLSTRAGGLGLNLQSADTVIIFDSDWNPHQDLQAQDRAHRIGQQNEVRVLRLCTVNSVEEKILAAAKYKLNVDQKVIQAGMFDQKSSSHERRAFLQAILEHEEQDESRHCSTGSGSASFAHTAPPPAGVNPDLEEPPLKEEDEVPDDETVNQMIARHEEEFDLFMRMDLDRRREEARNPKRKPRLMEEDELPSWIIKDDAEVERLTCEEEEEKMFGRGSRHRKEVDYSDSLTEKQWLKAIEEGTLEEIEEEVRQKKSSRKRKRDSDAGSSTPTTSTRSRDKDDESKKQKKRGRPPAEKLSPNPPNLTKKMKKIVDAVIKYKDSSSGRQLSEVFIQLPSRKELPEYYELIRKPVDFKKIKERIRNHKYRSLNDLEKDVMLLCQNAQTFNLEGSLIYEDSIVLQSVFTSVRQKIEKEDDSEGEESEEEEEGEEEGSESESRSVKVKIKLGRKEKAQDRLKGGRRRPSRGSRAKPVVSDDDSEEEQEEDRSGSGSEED
UniProt Q96GM5: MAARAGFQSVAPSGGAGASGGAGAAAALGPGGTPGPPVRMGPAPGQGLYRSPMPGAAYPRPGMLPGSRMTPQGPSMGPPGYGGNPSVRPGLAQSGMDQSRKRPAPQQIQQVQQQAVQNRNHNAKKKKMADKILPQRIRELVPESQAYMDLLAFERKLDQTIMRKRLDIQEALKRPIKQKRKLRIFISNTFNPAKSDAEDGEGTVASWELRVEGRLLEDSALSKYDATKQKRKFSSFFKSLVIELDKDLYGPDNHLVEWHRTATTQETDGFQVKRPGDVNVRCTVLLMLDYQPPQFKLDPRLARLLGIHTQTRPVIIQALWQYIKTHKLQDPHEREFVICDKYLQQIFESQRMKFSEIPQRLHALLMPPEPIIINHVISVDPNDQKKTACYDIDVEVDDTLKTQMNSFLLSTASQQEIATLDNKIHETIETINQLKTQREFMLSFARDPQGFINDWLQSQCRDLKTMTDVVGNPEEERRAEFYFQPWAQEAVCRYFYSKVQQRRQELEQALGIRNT

B1: REST (protein, UniProt Q13127 1-1097)
chain: MATQVMGQSSGGGGLFTSSGNIGMALPNDMYDLHDLSKAELAAPQLIMLANVALTGEVNGSCCDYLVGEERQMAELMPVGDNNFSDSEEGEGLEESADIKGEPHGLENMELRSLELSVVEPQPVFEASGAPDIYSSNKDLPPETPGAEDKGKSSKTKPFRCKPCQYEAESEEQFVHHIRVHSAKKFFVEESAEKQAKARESGSSTAEEGDFSKGPIRCDRCGYNTNRYDHYTAHLKHHTRAGDNERVYKCIICTYTTVSEYHWRKHLRNHFPRKVYTCGKCNYFSDRKNNYVQHVRTHTGERPYKCELCPYSSSQKTHLTRHMRTHSGEKPFKCDQCSYVASNQHEVTRHARQVHNGPKPLNCPHCDYKTADRSNFKKHVELHVNPRQFNCPVCDYAASKKCNLQYHFKSKHPTCPNKTMDVSKVKLKKTKKREADLPDNITNEKTEIEQTKIKGDVAGKKNEKSVKAEKRDVSKEKKPSNNVSVIQVTTRTRKSVTEVKEMDVHTGSNSEKFSKTKKSKRKLEVDSHSLHGPVNDEESSTKKKKKVESKSKNNSQEVPKGDSKVEENKKQNTCMKKSTKKKTLKNKSSKKSSKPPQKEPVEKGSAQMDPPQMGPAPTEAVQKGPVQVEPPPPMEHAQMEGAQIRPAPDEPVQMEVVQEGPAQKELLPPVEPAQMVGAQIVLAHMELPPPMETAQTEVAQMGPAPMEPAQMEVAQVESAPMQVVQKEPVQMELSPPMEVVQKEPVQIELSPPMEVVQKEPVKIELSPPIEVVQKEPVQMELSPPMGVVQKEPAQREPPPPREPPLHMEPISKKPPLRKDKKEKSNMQSERARKEQVLIEVGLVPVKDSWLLKESVSTEDLSPPSPPLPKENLREEASGDQKLLNTGEGNKEAPLQKVGAEEADESLPGLAANINESTHISSSGQNLNTPEGETLNGKHQTDSIVCEMKMDTDQNTRENLTGINSTVEEPVSPMLPPSAVEEREAVSKTALASPPATMAANESQEIDEDEGIHSHEGSDLSDNMSEGSDDSGLHGARPVPQESSRKNAKEALAVKAAKGDFVCIFCDRSFRKGKDYSKHLNRHLVNVYYLEEAAQGQE

Tests used:
[1] = molecular target: T1, Myc/DDK tagged FBXO32; assay: affinity purification with mass spectrometry; tandem affinity purification of Myc/DDK-FBXO32 from cell lysate (2 mg; TRIS-HCl pH7.5 50 mM, NaCl 15 mM, Triton X-100 1%): anti-DDK immunoprecipitation, elution with DDK peptide, then anti-Myc immunoprecipitation, SDS-PAGE, nano-HPLC MS; parental cells as control; two experiments
[2] = molecular target: T1, Myc/DDK tagged FBXO32; assay: as above; remark: listed apart in the source

Molecule	binding [1]	binding [2]
SMARCA5 (from UniProt O60264 1-1052)	binds	
SMARCA4 (BRG1) (from UniProt P51532 1-1647)	binds	
SMARCD1 (BAF60a) (from UniProt Q96GM5 1-515)	binds	
B1		no binding
